The target of experiment [1] is T1, CCT2, endogenous in human breast cancer cells (human (endogenous in MDA-MB-231 and MDA-MB-468)) (UniProt P78371).
T1 sequence: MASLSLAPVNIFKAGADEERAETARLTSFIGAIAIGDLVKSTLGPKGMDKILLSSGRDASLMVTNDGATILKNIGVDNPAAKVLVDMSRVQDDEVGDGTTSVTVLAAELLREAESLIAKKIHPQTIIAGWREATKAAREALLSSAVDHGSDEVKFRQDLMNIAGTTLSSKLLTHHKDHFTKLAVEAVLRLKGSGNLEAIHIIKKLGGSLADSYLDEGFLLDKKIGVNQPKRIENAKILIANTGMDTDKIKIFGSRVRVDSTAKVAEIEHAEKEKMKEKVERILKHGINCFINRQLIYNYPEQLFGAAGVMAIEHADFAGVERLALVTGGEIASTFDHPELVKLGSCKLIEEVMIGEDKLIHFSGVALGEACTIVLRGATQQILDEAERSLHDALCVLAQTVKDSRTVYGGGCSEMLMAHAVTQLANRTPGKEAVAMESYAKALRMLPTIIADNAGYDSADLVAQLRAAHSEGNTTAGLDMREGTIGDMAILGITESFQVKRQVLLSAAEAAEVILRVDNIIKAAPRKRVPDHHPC
The experiment is described as follows: co-IP; endogenous CCT2 and Trim21 in lysates of MDA-MB-231, MDA-MB-468 and 4T1 cells; protein A/G plus agarose, 4 °C overnight, IgG as control.

Protein sequences, listed by entry. Tags and fused reporters are not part of them.
UniProt P19474: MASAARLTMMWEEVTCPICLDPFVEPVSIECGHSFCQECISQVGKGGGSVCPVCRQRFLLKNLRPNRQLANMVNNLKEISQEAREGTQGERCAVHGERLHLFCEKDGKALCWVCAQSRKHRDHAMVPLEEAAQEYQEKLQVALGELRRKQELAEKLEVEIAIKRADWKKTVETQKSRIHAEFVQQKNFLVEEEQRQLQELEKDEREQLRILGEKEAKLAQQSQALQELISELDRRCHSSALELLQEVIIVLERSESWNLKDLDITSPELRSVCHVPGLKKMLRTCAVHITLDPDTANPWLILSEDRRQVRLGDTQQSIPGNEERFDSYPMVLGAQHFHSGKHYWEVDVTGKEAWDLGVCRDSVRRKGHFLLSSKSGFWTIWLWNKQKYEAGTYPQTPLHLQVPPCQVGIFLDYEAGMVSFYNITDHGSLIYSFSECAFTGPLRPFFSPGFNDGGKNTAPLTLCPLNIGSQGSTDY

Experiment [2] concerns the target T2, CCT2-Flag (chaperonin-containing TCP1 subunit 2), expressed in HEK293T cells (human) (UniProt P78371).
T2 sequence: T1 sequence
The experiment is described as follows: co-IP; HEK293T cells transfected with CCT2-Flag and Trim21-HA (or their truncation mutants); IP with anti-Flag or anti-HA antibodies, protein A/G plus agarose, 4 °C overnight.

The target in experiment [3] is T3, CCT2, endogenous in mouse 4T1 breast cancer cells (mouse (endogenous in 4T1)) (UniProt P80314).
T3 sequence: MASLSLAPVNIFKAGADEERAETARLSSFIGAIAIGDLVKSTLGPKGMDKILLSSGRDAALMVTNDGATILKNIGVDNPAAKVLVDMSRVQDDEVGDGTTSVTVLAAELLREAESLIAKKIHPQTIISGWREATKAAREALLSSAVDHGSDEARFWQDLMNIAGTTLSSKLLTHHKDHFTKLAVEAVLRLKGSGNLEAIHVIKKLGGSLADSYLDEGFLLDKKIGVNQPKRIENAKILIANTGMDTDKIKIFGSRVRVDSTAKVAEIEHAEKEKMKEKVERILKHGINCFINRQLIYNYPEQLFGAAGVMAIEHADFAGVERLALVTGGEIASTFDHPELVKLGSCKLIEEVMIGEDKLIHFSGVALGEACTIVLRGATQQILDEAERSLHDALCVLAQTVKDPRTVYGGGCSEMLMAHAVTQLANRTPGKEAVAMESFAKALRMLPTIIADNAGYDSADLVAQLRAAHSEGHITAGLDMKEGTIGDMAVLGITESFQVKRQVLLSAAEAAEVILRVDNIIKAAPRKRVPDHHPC
The experiment is described as follows: co-IP; endogenous CCT2 and Trim21 in lysates of MDA-MB-231, MDA-MB-468 and 4T1 cells; protein A/G plus agarose, 4 °C overnight, IgG as control.

No constants are given. Whether binding was seen depends on the method and setting. Binding seen in cells or lysates may run through a third protein. Some entries that bind do so weakly or less than the wild type. For part of these data: Where a sequence is shown, tags or fusion partners need not be part of it.

Binding data for three molecules are collected here from article PMC11289294.

For “Trim21 (ubiquitin E3 ligase), endogenous in human breast cancer cells (from UniProt P19474 1-475)”, the binding result in experiment [1] is listed as “binds”.

Turning to “Trim21-HA, expressed in HEK293T cells (from UniProt P19474 1-475)”, the binding entry in experiment [2] is “binds”.

B1: Trim21, endogenous in mouse 4T1 breast cancer cells (protein, UniProt Q62191 1-470)
chain: MSPSTTSKMSLEKMWEEVTCSICLDPMVEPMSIECGHCFCKECIFEVGKNGGSSCPECRQQFLLRNLRPNRHIANMVENLKQIAQNTKKSTQETHCMKHGEKLHLFCEEDGQALCWVCAQSGKHRDHTRVPIEEAAKVYQEKIHVVLEKLRKGKELAEKMEMDLTMQRTDWKRNIDTQKSRIHAEFALQNSLLAQEEQRQLQRLEKDQREYLRLLGKKEAELAEKNQALQELISELERRIRGSELELLQEVRIILERSGSWNLDTLDIDAPDLTSTCPVPGRKKMLRTCWVHITLDRNTANSWLIISKDRRQVRMGDTHQNVSDNKERFSNYPMVLGAQRFSSGKMYWEVDVTQKEAWDLGVCRDSVQRKGQFSLSPENGFWTIWLWQDSYEAGTSPQTTLHIQVPPCQIGIFVDYEAGVVSFYNITDHGSLIYTFSECVFAGPLRPFFNVGFNYSGGNAAPLKLCPLKM
As to B1, the binding result in experiment [3] was “binds”.
